Measurements from PubChem BioAssay AID540256 (National Center for Advancing Translational Sciences (NCATS), 2011).
In all, about 300,000 compounds went through this assay and about 3,700 (1.2%) were called active. Inconclusive results, whose numbers are uncertain, are shown with a selection of clear calls. The call rests on the fitted dose curve; tested in HEK293 cells. A potency beside an inconclusive call is a rough fit, not a confirmed value.

Experiment: qHTS for Inhibitors of binding or entry into cells for Lassa Virus; further: nearly all actives have a fitted effect of over 50% in size
Conditions: Lassa virus pseudotype entry inhibition, cell reporter; activity change, negative = inhibition: at 37.9 µM (top of the series) unless noted
On the % scale 0 is the no-effect control and ±100 the full control effect; potency means the concentration at half of the fitted maximal effect.

| Structure (SMILES) | activity change, negative = inhibition | Potency |
| --- | --- | --- |
| Cc1cc(C)cc(NC(=O)C2CCN(S(=O)(=O)c3cccc4nonc34)CC2)c1 | inactive: -0.0236% [at 46.1 µM] | – |
| Nc1c2c(nc3ccccc13)CCCC2 | – | inconclusive: 0.0183 µM [activator, full curve, poor fit] |
| COC(=O)C1CCN(c2c([N+](=O)[O-])cc(C(F)(F)F)cc2[N+](=O)[O-])CC1 | inactive: 9.13% | – |
| Clc1cccc(/C=N/Nc2nnc(Cl)c3ccccc23)c1 | inactive: 0.323% | – |
| O=C(N/N=C/c1ccccc1O)NC12CC3CC(CC(C3)C1)C2 | – | inconclusive: 35.5 µM [inhibitor, single point] |
| Cc1ccc(NC(=O)c2cc(S(=O)(=O)N3CCOCC3)c(Cl)cc2Cl)cc1 | – | inconclusive: 35.5 µM [inhibitor, single point] |
| Cc1nc2nc(C)c(NS(=O)(=O)c3ccc(C4CCCCC4)cc3)c(=O)n2[nH]1 | – | inconclusive: 3.55 µM [activator, full curve, poor fit] |
| COc1ccc(NC(=O)c2cc3ccccc3cc2OC)cc1 | – | inconclusive: 12.6 µM [inhibitor, single point] |
| COc1cccc(OCc2cc(C(=O)N3CCC(c4ccncc4)CC3)no2)c1 | – | inconclusive: 3.16 µM [inhibitor, full curve, poor fit] |
| COC(=O)/C=C/C(=O)N1CCN(c2ccccc2C)CC1 | inactive: -1.53% | – |
| O=C(CN1CCC(c2nc3ccccc3s2)CC1)NCc1cccs1 | – | inconclusive: 18.3 µM [inhibitor, single point] |
| CN1CCN(CC(=O)N2c3ccccc3C(C)(c3ccccc3)CC2(C)C)CC1 (stereo not drawn) | – | inconclusive: 35.5 µM [inhibitor, single point] |
| CN1C(=O)CC(N2CCN(C(=O)c3ccccc3)CC2)C1=O (stereo not drawn) | – | inconclusive: 10 µM [activator, partial curve, poor fit] |
| COc1cc(NC(=O)CSc2nnc3n2C(C)(C)Cc2ccccc2-3)cc(OC)c1 | inactive: -7.11% | – |
| CCN(C(=O)COC(=O)c1nc2nc(C)cc(C)n2n1)C1CCCCC1 | – | inconclusive: 12.6 µM [activator, single point] |
| CCOc1ccc(N2CC(C(=O)NCCc3ccccc3)CC2=O)cc1 (stereo not drawn) | inactive: 6.19% | – |
| O=C(CCl)N1CCN(S(=O)(=O)c2ccc3ccccc3c2)CC1 | – | inconclusive: 20.6 µM [inhibitor, single point] |
| Cc1cc(=O)oc2c(C)c(OCC(=O)N3CCN(Cc4ccccc4)CC3)ccc12 | – | inconclusive: 11.2 µM [inhibitor, partial curve, poor fit] |
| O=C(CNc1ccccc1)N/N=C/c1cn(-c2ccccc2)nc1-c1ccccc1 | inactive: 6.21% | – |
| CCOC(=O)c1ccccc1NC(=O)CSc1nc2ncccc2[nH]1 | inactive: 3.59% [at 46.1 µM] | – |
| CCN1c2ccccc2-c2nc(SCC(=O)Nc3ccc(C)c(Cl)c3)ncc2S1(=O)=O | – | inconclusive: 20 µM [inhibitor, single point] |
| CCC(=O)Nc1cccc(NC(=S)NC(=O)c2cccs2)c1 | – | inconclusive: 0.13 µM [activator, full curve, poor fit] |

| Structure (SMILES) | activity change, negative = inhibition | Potency |
| --- | --- | --- |
| COc1ccccc1N(C)S(=O)(=O)c1ccc(C(=O)N(C)Cc2ccc(OC(F)F)cc2)cc1 | – | inconclusive: 15.8 µM [inhibitor, single point] |
| Cc1ccc2[nH]c3c(=O)n4c(nc3c2c1)SCC4 | inactive: 10.8% [at 46.1 µM] | – |
| CN1CCN(NC(=O)c2ccccc2F)CC1 | inactive: 23.5% | – |
| COc1ccc2c(c1)cc1n2CCN2CCCN=C12 | – | inconclusive: 16.4 µM [activator, single point] |
| CN1CCN(c2nc3c(c(=O)[nH]c(=O)n3C)n2CCCSc2ncccn2)CC1 | inactive: 6.59% | – |
| Clc1ccc(-c2csc(=Nc3cccnc3)n2CCCn2ccnc2)cc1Cl | – | inconclusive: 23.1 µM [inhibitor, partial curve, poor fit] |
| COc1ccnc(N2CCN(c3cccc(C(F)(F)F)c3)CC2)c1C#N | – | inconclusive: 10.3 µM [inhibitor, partial curve, poor fit] |
| CC1CCCN(c2c3c(nc4ccccc24)CCCC3)C1 (stereo not drawn) | – | inconclusive: 10 µM [inhibitor, partial curve, poor fit] |
| CS(=O)(=O)N1CCc2cc(S(=O)(=O)N3CCN(Cc4ccc5c(c4)OCO5)CC3)ccc21 | – | inconclusive: 6.51 µM [inhibitor, single point] |
| COc1ccc(-c2nc(NC(=O)c3ccc(OCC(=O)N4CCOCC4)c(OC)c3)sc2C)cc1 | – | inconclusive: 20 µM [inhibitor, partial curve, poor fit] |
| c1ccc(-c2cn(-c3ccccc3)c3ncnc(N4CCCCC4)c23)cc1 | – | inconclusive: 10 µM [inhibitor, partial curve, poor fit] |
| O=C(NCC1CCCO1)c1ccccc1-c1nc(-c2ccc(F)cc2)no1 (stereo not drawn) | inactive: 16.4% | – |
| Cc1ccc2cc(CN(CC3CCCO3)C(=S)NCc3ccco3)c(=O)[nH]c2c1C (stereo not drawn) | – | active: 5.8 µM |
| Cc1ccc2c(c1)c1c3n2CC(=C2C(=O)OC(C)(C)OC2=O)NC3CCC1 (stereo not drawn) | inactive: -21.9% | – |
| C[C@@H](C(=O)NCCc1c[nH]c2ccccc12)[C@@H]1C[C@@]1(C)[C@@H](NC(=O)OCc1ccccc1)c1ccccc1 | – | inconclusive: 16.4 µM [inhibitor, single point] |
| Cc1noc(-c2ccccc2OCC(=O)Nc2cccc([N+](=O)[O-])c2)n1 | – | inconclusive: 25.1 µM [inhibitor, single point] |
| Cc1ccc(Nc2c([N+](=O)[O-])c(=O)n(C)c3ccccc23)cc1 | – | inconclusive: 15.8 µM [inhibitor, single point] |
| O=C1c2ccccc2C(=O)N1CCOc1cccc(Br)c1 | – | inconclusive: 3.16 µM [activator, single point] |
| COC(=O)CCc1sc(Nc2ccc(OC)cc2)nc1-c1ccc(OC)cc1 | – | inconclusive: 1.12 µM [inhibitor, full curve, poor fit] |
| Clc1ccccc1-c1nnc(-c2ccc3c(c2)OCO3)o1 | – | inconclusive: 35.5 µM [inhibitor, single point] |
| CCc1ncc(CN2CCC(C(=O)Nc3cccc(-c4cscn4)c3)CC2)cn1 | – | inconclusive: 1.26 µM [inhibitor, single point] |

Part of the list above, set out differently:
Structure (SMILES)	activity change, negative = inhibition	Potency
COc1ccc(-c2nc(NC(=O)c3ccc(OCC(=O)N4CCOCC4)c(OC)c3)sc2C)cc1	–	inconclusive: 20 µM [inhibitor, partial curve, poor fit]
Cc1ccc2cc(CN(CC3CCCO3)C(=S)NCc3ccco3)c(=O)[nH]c2c1C (stereo not drawn)	–	active: 5.8 µM
Cc1noc(-c2ccccc2OCC(=O)Nc2cccc([N+](=O)[O-])c2)n1	–	inconclusive: 25.1 µM [inhibitor, single point]
